No constants are given. Whether binding was seen depends on the method and setting. A result given as binding can be weak or reduced; the word gives no strength.
Molecular target: EV71 virus (Enterovirus 71)
Assay: preliminary investigations (ELISA and BLI on EV71-VLP)

B1: chimeric D5 antibody (antibody, V domains shown)
VH: EVQLQQSGAELVKPGASVKLSCTASGFNIKDTYIHWVKQRPEQGLEWIGKIDPANGNTKYDPKFQDKATITADTSSNTAYLQLSSLTSEDTAVYYCANSNYWFDFDYWGQGTTLTVSS
VL: DVLMTQTPLSLPVSLGDQASISCRSSQSIVHSNGNTYLEWYLQKPGQSPKLLIYKVSNRFSGVPDRFSGSGSGTDFTLKISRVEADDVGVYYCYQGSHVPYTFGGGTKLEIK
B1 was tested, and the binding was “binds”.
